Measurements as given in paper PMC5007552.
No constants are given. Whether binding was seen depends on the method and setting. Binding seen in cells or lysates may run through a third protein. Some results given as binding are weak or reduced against the parent protein; the word gives no strength. Where a sequence is shown, tags or fusion partners need not be part of it.

Target: T1, SGK3 [S486E]-GST (human) (UniProt Q96BR1)
T1 sequence: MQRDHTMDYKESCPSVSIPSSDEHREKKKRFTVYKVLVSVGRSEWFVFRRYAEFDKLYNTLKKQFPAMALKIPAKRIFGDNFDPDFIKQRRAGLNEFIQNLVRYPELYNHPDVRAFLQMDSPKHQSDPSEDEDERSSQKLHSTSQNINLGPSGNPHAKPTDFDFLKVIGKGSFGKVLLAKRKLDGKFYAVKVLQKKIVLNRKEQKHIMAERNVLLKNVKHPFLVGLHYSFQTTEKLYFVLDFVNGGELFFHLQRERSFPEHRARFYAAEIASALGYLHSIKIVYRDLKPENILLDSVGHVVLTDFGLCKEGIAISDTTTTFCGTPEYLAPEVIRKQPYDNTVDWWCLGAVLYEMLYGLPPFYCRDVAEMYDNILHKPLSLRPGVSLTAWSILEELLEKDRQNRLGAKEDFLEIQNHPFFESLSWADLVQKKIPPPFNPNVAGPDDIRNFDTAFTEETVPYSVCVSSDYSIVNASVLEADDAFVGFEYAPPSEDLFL
Assay: pull-down

binding: binds
B1: phosphoinositide-dependent kinase 1 (PDK1), endogenous (enzyme, UniProt O15530 1-556)
chain: MARTTSQLYDAVPIQSSVVLCSCPSPSMVRTQTESSTPPGIPGGSRQGPAMDGTAAEPRPGAGSLQHAQPPPQPRKKRPEDFKFGKILGEGSFSTVVLARELATSREYAIKILEKRHIIKENKVPYVTRERDVMSRLDHPFFVKLYFTFQDDEKLYFGLSYAKNGELLKYIRKIGSFDETCTRFYTAEIVSALEYLHGKGIIHRDLKPENILLNEDMHIQITDFGTAKVLSPESKQARANSFVGTAQYVSPELLTEKSACKSSDLWALGCIIYQLVAGLPPFRAGNEYLIFQKIIKLEYDFPEKFFPKARDLVEKLLVLDATKRLGCEEMEGYGPLKAHPFFESVTWENLHQQTPPKLTAYLPAMSEDDEDCYGNYDNLLSQFGCMQVSSSSSSHSLSASDTGLPQRSGSNIEQYIHDLDSNSFELDLQFSEDEKRLLLEKQAGGNPWHQFVENNLILKMGPVDKRKGLFARRRQLLLTEGPHLYYVDPVNKVLKGEIPWSQELRPEAKNFKTFFVHTPNRTYYLMDPSGNAHKWCRKIQEVWRQRYQSHPDAAVQ
